Test results as given in article PMC12992792.

Assays:
Test in all cases: two-hybrid; all-versus-all matrix screen in S. cerevisiae; every protein as bait (DBD) and prey (AD), tagged N- or C-terminally, eight configurations a pair; mating on YPDA, selection on -His/-Trp/-Leu/-Ura/-Ade, 30 °C, four to seven days; replication score cutoff 0.75
[1] = target: T1, D. melanogaster Deadlock (D. melanogaster) (UniProt Q9VIF5)
T1 sequence: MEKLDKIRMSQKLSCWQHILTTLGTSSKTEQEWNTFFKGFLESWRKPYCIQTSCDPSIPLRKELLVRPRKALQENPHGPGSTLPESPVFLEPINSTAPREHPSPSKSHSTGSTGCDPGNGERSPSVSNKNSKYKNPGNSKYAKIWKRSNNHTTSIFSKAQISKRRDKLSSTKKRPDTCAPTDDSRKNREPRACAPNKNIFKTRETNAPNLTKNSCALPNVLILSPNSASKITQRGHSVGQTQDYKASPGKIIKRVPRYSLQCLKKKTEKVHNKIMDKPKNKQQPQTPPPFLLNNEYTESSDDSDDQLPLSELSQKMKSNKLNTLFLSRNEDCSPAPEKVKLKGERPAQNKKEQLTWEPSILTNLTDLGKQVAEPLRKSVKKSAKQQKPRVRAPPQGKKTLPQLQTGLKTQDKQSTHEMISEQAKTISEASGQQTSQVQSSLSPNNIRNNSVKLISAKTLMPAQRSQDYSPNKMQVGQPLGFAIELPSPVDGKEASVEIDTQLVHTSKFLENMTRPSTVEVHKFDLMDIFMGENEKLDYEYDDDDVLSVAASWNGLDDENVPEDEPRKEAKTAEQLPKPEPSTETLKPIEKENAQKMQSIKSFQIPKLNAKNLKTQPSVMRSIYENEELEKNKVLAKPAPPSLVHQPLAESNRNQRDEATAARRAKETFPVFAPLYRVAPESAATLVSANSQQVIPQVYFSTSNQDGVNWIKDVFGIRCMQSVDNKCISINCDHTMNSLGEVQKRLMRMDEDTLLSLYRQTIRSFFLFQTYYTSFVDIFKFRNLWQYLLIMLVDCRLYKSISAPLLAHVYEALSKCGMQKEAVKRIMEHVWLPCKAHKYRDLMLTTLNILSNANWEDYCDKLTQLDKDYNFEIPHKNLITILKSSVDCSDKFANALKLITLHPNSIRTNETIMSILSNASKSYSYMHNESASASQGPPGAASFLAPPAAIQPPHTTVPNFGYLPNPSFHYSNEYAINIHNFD

[2] = target: T2, D. melanogaster Rhino (D. melanogaster) (UniProt Q7JXA8)
T2 sequence: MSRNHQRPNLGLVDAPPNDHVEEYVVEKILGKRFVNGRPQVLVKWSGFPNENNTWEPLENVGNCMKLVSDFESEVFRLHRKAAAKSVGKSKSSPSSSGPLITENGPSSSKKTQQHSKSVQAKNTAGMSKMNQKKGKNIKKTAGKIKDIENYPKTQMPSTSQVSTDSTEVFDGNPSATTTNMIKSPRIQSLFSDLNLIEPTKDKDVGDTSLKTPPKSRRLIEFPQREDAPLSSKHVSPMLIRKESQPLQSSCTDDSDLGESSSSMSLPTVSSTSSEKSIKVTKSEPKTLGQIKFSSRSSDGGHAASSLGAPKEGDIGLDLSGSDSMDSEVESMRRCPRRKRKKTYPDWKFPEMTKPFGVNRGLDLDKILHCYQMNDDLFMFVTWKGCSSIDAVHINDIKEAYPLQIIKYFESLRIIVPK

[3] = target: T3, D. simulans Rhino (D. simulans) (UniProt Q49BI5)
T3 sequence: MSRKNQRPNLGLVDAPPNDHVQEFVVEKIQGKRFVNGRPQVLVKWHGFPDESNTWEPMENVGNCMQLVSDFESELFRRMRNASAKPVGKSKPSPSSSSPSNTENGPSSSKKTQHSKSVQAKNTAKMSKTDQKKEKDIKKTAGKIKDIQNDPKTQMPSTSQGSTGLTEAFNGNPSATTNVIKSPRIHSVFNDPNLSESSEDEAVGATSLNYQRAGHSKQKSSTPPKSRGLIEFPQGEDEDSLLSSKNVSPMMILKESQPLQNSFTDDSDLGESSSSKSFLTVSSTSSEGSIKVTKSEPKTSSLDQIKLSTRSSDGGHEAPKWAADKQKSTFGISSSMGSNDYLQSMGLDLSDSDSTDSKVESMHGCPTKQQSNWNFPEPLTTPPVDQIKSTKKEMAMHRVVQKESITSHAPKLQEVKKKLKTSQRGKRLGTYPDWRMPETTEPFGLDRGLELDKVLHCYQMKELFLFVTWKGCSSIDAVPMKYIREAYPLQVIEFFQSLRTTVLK

[4] = target: T4, D. melanogaster TFIIA-S (D. melanogaster) (UniProt P52656)
T4 sequence: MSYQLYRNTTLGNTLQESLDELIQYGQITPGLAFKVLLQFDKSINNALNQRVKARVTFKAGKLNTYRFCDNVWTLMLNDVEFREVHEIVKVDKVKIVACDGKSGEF

[5] = target: T5, D. melanogaster Moonshiner (D. melanogaster) (UniProt Q9VYQ0)
T5 sequence: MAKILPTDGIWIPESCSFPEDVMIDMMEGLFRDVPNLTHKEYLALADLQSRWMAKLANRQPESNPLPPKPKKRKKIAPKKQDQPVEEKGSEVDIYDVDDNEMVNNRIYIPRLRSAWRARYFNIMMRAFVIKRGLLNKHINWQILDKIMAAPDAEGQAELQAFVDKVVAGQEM

[6] = target: D. erecta C-terminal Binding Protein (D. erecta)
[7] = target: D. simulans C-terminal Binding Protein (D. simulans)
[8] = target: D. virilis C-terminal Binding Protein (D. virilis)
[9] = target: D. persimilis C-terminal Binding Protein (D. persimilis)

Molecule: D. melanogaster Kipferl
binding [2]: binds

Molecule: D. simulans Bootlegger
binding [1]: binds

Molecule: D. melanogaster TATA box binding protein-related factor 2
binding [4]: no binding
binding [5]: no binding

B1: D. melanogaster Deadlock (protein, UniProt Q9VIF5 1-981)
chain: MEKLDKIRMSQKLSCWQHILTTLGTSSKTEQEWNTFFKGFLESWRKPYCIQTSCDPSIPLRKELLVRPRKALQENPHGPGSTLPESPVFLEPINSTAPREHPSPSKSHSTGSTGCDPGNGERSPSVSNKNSKYKNPGNSKYAKIWKRSNNHTTSIFSKAQISKRRDKLSSTKKRPDTCAPTDDSRKNREPRACAPNKNIFKTRETNAPNLTKNSCALPNVLILSPNSASKITQRGHSVGQTQDYKASPGKIIKRVPRYSLQCLKKKTEKVHNKIMDKPKNKQQPQTPPPFLLNNEYTESSDDSDDQLPLSELSQKMKSNKLNTLFLSRNEDCSPAPEKVKLKGERPAQNKKEQLTWEPSILTNLTDLGKQVAEPLRKSVKKSAKQQKPRVRAPPQGKKTLPQLQTGLKTQDKQSTHEMISEQAKTISEASGQQTSQVQSSLSPNNIRNNSVKLISAKTLMPAQRSQDYSPNKMQVGQPLGFAIELPSPVDGKEASVEIDTQLVHTSKFLENMTRPSTVEVHKFDLMDIFMGENEKLDYEYDDDDVLSVAASWNGLDDENVPEDEPRKEAKTAEQLPKPEPSTETLKPIEKENAQKMQSIKSFQIPKLNAKNLKTQPSVMRSIYENEELEKNKVLAKPAPPSLVHQPLAESNRNQRDEATAARRAKETFPVFAPLYRVAPESAATLVSANSQQVIPQVYFSTSNQDGVNWIKDVFGIRCMQSVDNKCISINCDHTMNSLGEVQKRLMRMDEDTLLSLYRQTIRSFFLFQTYYTSFVDIFKFRNLWQYLLIMLVDCRLYKSISAPLLAHVYEALSKCGMQKEAVKRIMEHVWLPCKAHKYRDLMLTTLNILSNANWEDYCDKLTQLDKDYNFEIPHKNLITILKSSVDCSDKFANALKLITLHPNSIRTNETIMSILSNASKSYSYMHNESASASQGPPGAASFLAPPAAIQPPHTTVPNFGYLPNPSFHYSNEYAINIHNFD
binding [6]: no binding
binding [7]: no binding
binding [8]: no binding
binding [9]: no binding

Continued, values first:

binding [1]: binds
Molecule: D. melanogaster Bootlegger

binding [3]: binds
Molecule: D. simulans Kipferl

These are yes or no findings as the source states them, for the method shown. For some of these results: A result given as binding can be weak or reduced; the word gives no strength. Each block holds one molecule with its values, some of them ahead of it.
